Results reported in patent US7951811B2, “Pyrrolo[2,3-D]pyrimidine derivatives substituted with a cyclic amino group” (Taisho Pharmaceutical Co., Ltd., priority 2004, dated 2011).
Some results were stated once for a whole list of compounds, not compound by compound.

Molecular target: T1, CRF receptor (Macaca mulatta, UniProt Q76LL8)
T1 sequence (Q76LL8 24-415): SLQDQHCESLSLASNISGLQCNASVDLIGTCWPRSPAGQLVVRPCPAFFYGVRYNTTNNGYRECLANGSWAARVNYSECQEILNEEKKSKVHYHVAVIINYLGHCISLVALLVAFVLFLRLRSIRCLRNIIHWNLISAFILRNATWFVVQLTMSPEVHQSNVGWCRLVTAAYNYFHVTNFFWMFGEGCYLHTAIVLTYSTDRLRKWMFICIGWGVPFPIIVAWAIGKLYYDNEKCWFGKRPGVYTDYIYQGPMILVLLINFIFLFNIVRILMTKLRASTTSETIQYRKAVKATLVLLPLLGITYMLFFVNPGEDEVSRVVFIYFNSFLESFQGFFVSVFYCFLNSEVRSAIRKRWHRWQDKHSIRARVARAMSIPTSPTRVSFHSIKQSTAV
Experiment: CRF receptor binding test (125I-CRF displacement)
Conditions: read-out: IC50 (concentration at which binding of 125I-CRF is inhibited by 50%); monkey amygdala membranes, 125I-CRF 0.2 nM, 25° C., 2 hours

Row | SMILES | IC50 [nM]
1 | Cc1cc(N2CCC(CC(=O)O)CC2)c2c(C)cn(-c3ccc(Br)cc3Br)c2n1 [Compound 1-016, {1-[1-(2,4-dibromo-phenyl)-3,6-dimethyl-1H-pyrrolo[2,3-b]pyridin-4-yl]-piperidin-4-yl}-acetic acid] | ≤ 100
2 | Cc1cc(N2CCC(CCC(=O)O)CC2)c2c(C)cn(-c3ccc(Br)cc3Br)c2n1 [Compound 1-031, 3-{1-[1-(2,4-dibromo-phenyl)-3,6-dimethyl-1H-pyrrolo[2,3-b]pyridin-4-yl]-piperidin-4-yl}-propionic acid] | ≤ 100
3 | Cc1cc(N2CCC(CCC(=O)O)CC2)c2c(C)cn(-c3c(Cl)cc(Cl)cc3Cl)c2n1 [Compound 1-026, 3-{1-[3,6-dimethyl-1-(2,4,6-trichloro-phenyl)-1H-pyrrolo[2,3-b]pyridin-4-yl]piperidin-4-yl}-propionic acid] | ≤ 100
4 | Cc1cc(N2C3CCC2CC(CC(=O)O)C3)c2c(C)cn(-c3c(C)cc(Br)cc3C)c2n1 (stereo not shown) [Compound 1-034, {8-[1-(4-bromo-2,6-dimethyl-phenyl)-3,6-dimethyl-1H-pyrrolo[2,3-b]pyridin-4-yl]-8-aza-bicyclo[3.2.1]oct-3-yl}-acetic acid] | ≤ 100
5 | Cc1cc(N2CCC(CC(=O)O)CC2)c2c(C)cn(-c3c(Cl)cc(Cl)cc3Cl)c2n1 [Compound 1-011, {1-[3,6-dimethyl-1-(2,4,6-trichloro-phenyl)-1H-pyrrolo[2,3-b]pyridin-4-yl]-piperidin-4-yl}-acetic acid] | ≤ 100
6 | Cc1cc(N2CCC(CP(=O)(O)O)CC2)c2c(C)cn(-c3c(C)cc(Br)cc3C)c2n1 [Compound 1-045, {1-[1-(4-bromo-2,6-dimethyl-phenyl)-3,6-dimethyl-1H-pyrrolo[2,3-b]pyridin-4-yl]-piperidin-4-ylmethyl}-phosphonic acid] | ≤ 100
7 | Cc1cc(N2CCC(CC(N)=O)CC2)c2c(C)cn(-c3c(C)cc(Br)cc3C)c2n1 [Compound 1-039, 2-{1-[1-(4-bromo-2,6-dimethyl-phenyl)-3,6-dimethyl-1H-pyrrolo[2,3-b]pyridin-4-yl]-piperidin-4-yl}-acetamide] | ≤ 100
